Drawing on paper PMC4914971, this text covers binding for 1 substance.

The chains behind the UniProt entries cited, without tags or fusion partners.
UniProt A6HD62: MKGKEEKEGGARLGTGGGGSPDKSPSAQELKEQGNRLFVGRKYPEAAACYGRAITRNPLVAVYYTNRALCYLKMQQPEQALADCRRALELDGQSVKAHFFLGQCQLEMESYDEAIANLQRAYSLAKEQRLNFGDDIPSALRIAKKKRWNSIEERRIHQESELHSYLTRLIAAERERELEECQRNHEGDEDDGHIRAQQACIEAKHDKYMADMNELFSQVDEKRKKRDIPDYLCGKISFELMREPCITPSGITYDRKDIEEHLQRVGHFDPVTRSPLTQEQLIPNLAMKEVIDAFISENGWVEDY
UniProt P81718: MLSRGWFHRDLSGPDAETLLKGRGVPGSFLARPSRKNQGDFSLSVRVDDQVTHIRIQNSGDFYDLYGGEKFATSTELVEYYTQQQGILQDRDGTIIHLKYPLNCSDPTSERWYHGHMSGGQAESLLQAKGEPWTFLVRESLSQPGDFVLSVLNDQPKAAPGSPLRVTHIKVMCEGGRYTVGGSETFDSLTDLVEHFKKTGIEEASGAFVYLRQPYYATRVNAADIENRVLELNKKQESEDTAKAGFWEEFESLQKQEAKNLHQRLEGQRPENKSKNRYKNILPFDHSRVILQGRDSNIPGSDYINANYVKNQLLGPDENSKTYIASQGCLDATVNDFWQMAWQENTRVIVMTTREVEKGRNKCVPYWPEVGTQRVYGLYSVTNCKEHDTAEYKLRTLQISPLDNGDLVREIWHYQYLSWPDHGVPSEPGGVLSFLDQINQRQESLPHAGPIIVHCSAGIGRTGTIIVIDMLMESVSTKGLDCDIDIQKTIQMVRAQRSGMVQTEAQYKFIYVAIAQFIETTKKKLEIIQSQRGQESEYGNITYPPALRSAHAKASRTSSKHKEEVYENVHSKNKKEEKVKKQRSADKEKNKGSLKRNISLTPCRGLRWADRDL

This experiment has as its target Carboxyl terminus of Hsp70-interacting protein (rat (endogenous in H9c2)) (UniProt A6HD62). The experiment in a line: co-IP; H9c2 cell lysates immunoprecipitated with anti-CHIP or control IgG antibody for 2 h at 4 °C; beads washed; immunoblot with anti-SHP-1 and anti-CHIP antibodies. (A western blot detects proteins with antibodies after separation by electrophoresis.)

No constants are given. Whether binding was seen depends on the method and setting. In cells and extracts the contact can be indirect. Some entries that bind do so weakly or less than the wild type.

Turning to “tyrosine phosphatase SHP-1 (from UniProt P81718 1-613)”, the binding entry is reported as “binds”.
